Measurements as given in patent publication US10822317B2, “Methods and compositions for wound healing” (QBiotics Limited, priority 2013, dated 2020).

Key:
[1] = test system: wounds following necrosis and sloughing of spontaneous tumours; test: Resolution of wounds after sloughing of spontaneous tumours treated by intratumoural injection, feline; assay type: in vivo; settings: wound size class 0.25 to 12 cm^2, 3 cases
Procedure: (§1) Veterinary clinical data on speed of resolution of wounds that formed following necrosis and sloughing of spontaneous tumours that had been treated by intratumoural injection of Compound 1 (30% 1,2 propanediol formulation at either 0.5 or 1.0 mg/mL concentration) in twenty-four companion animals are summarised in Table 17.
(§2) Note that all wounds were managed as open wounds and no bandaging, dressings, lotions or concomitant medications were used in any of these cases.

[2] = test system: wounds following necrosis and sloughing of spontaneous tumours; test: Resolution of wounds after sloughing of spontaneous tumours treated by intratumoural injection, equine; assay type: in vivo
Procedure: as §1, §2

[3] = wound size class 0.25 to 9 cm^2, 4 cases
[4] = wound size class 9 to 50 cm^2, 2 cases

Work on CC=C(C)C(=O)OC1C(C)C2(O)C(C3OC3(CO)C(O)C3(O)C(=O)C(C)=CC32)C2C(C)(C)C12OC(=O)C(C)CC (stereo not drawn) [Compound 1, 12-tigloyl-13-(2-methylbutanoyl)-6,7-epoxy-4,5,9,12,13,20-hexahydroxy-1-tigliaen-3-one] yielded an Average wound area [1] of 4.8 ± 6.3 cm^2, an Average wound depth [1] of 5.0 ± 4.3 mm and an Average wound area [2, 3] of 2.9 ± 1.4 cm^2. The Average wound depth [2, 3] was 7.5 ± 2.9 mm, the Average wound area [2, 4] was 19.5 ± 14.5 cm^2 and the Average wound depth [2, 4] was 10.0 ± 0 mm.
